The target in test [1] is T1, His-MBP-RGNEF^1–275 (human, UniProt Q8N1W1 1-275).
T1 construct: Detailed purification protocol is in the Supplementary Methods; also called His-NF242; NF242 (in the SPR experiments); source: E. coli, purified (Ni-IMAC); not shown: MBP, N-terminal, kept
T1 sequence (looked up): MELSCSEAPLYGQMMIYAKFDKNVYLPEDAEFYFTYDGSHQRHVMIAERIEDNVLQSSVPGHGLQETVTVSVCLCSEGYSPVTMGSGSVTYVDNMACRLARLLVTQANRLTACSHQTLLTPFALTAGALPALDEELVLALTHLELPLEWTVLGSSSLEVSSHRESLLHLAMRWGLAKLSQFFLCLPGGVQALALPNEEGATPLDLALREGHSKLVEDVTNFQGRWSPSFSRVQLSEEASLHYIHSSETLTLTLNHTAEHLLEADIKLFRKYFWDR
The experiment in a line: SPR; His-MBP-RGNEF^1–275 amine-coupled on a carboxymethyl dextran chip; TDP-43 fragments as analytes; 1× PBS, 0.1% Tween-20; 22°C; both purified. A general note: In SPR one partner is held on a chip, and binding of the other changes the refractive index at the surface.

By UniProt entry, the sequences of proteins in these tests, tags left out. Where a name states a change or a piece, a line headed by the entry shows the natural chain unless it says otherwise.
UniProt Q13148: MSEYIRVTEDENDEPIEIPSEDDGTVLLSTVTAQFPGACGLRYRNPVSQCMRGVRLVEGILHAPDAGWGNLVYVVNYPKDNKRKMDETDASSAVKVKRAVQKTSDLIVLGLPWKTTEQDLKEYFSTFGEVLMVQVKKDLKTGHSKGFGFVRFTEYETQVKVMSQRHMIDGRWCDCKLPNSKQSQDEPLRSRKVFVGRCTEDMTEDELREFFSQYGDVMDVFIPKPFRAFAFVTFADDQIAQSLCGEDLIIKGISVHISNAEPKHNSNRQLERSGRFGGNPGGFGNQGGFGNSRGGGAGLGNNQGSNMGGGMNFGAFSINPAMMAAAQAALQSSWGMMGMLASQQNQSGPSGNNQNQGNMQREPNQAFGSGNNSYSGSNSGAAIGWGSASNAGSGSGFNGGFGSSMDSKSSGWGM

Test [2] addresses T1, His-MBP-RGNEF^1–275. The experiment in a line: SPR; TDP-43^101–261 with or without the F4L mutations against NF242 (Supplementary Fig. 6A and B); buffer not stated; both purified.
In test [3] the target is T2, NF242-Δ77–79_P81G (human) (UniProt Q8N1W1).
T2 sequence: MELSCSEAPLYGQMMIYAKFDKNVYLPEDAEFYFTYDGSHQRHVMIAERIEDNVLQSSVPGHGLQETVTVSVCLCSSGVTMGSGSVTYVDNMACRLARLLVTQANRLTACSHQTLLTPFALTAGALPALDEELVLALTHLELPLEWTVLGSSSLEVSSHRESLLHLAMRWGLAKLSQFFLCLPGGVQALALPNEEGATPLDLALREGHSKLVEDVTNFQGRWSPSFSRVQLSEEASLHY
The experiment in a line: split reporter; NanoBiT (Promega) in living HEK293T cells, LgBiT and SmBiT fusions, luciferase read 48 h after transfection with Nano-Glo Live Cell Assay.

These are yes or no findings as the source states them, for the method shown. For some of these results: In cells and extracts the contact can be indirect. Some entries that bind do so weakly or less than the wild type. For some of these results: Tags and fused reporters may be left off the sequences shown.

Consider “His-RRM-2 (from UniProt Q13148 177-262) (domain or fragment)”, for which the binding entry with His-MBP-RGNEF^1–275 [1] is listed as “binds weakly”. As for “His-TDP-43^1–102 (from UniProt Q13148 1-102) (domain or fragment)”, the binding result with His-MBP-RGNEF^1–275 [1] is reported as “no binding”. With “His-TDP-43^101–261 (from UniProt Q13148 101-261) (domain or fragment)”, the binding entry with His-MBP-RGNEF^1–275 [2] is recorded as “binds”. “TDP-43^wt with the luciferase subunit fused to its C-terminal end (from UniProt Q13148 1-414)”: in test [3], the binding result was “no binding”.

(Values after publication PMC11146434, “Mitigation of TDP-43 toxic phenotype by an RGNEF fragment in amyotrophic lateral sclerosis models” (Brain, 2023).)
